# From PMC9646721, “Alkaloid binding to opium poppy major latex proteins triggers structural modification and functional aggregation” (Nature Communications, 2022)
# Values joined by “and” are separate entries in the source; they are usually repeats but may differ in a detail not shown here. Equal entries are not always repeated.
# Tests used:
# [1] = test system: engineered Saccharomyces cerevisiae CEN.PK strain (NISO not included); assay: Morphinan alkaloid accumulation in opiate-producing yeast strain fed salutaridine; assay type: cell-based; conditions: replicates 1-4
# PR10-12 = assay: ANS displacement assay; assay type: binding, Papaver somniferum; conditions: ANS displacement dose-response fit
# Description: (§1) Eluates were store separately on ice.
# (§2) Displacement of ANS is associated with reduced fluorescence.
# PR10-4 = assay: ANS displacement assay; assay type: binding, Papaver somniferum; conditions: ANS displacement dose-response fit
# Description: as §1, §2
# [2] = Sucrose density-gradient fractionation of latex, relative abundance of BIAs in gradient fractions; design: species or system Papaver somniferum
# MLP2 = assay: ANS displacement assay; assay type: binding, Papaver somniferum; conditions: ANS displacement dose-response fit
# Description: as §1, §2
# [3] = 2 h salutaridine feeding, EV strain
# [4] = 2 h salutaridine feeding, MLP2 strain
# [5] = 2 h salutaridine feeding, MLP15 strain
# [6] = 2 h salutaridine feeding, NISO strain
# [7] = 2 h salutaridine feeding, PR10-4 strain
# [8] = 2 h salutaridine feeding, PR10-10 strain
# [9] = 2 h salutaridine feeding, PR10-12 strain
# [10] = 6 h salutaridine feeding, EV strain
# [11] = 6 h salutaridine feeding, MLP2 strain
# [12] = 6 h salutaridine feeding, MLP15 strain
# [13] = 6 h salutaridine feeding, NISO strain
# [14] = 6 h salutaridine feeding, PR10-4 strain
# [15] = 6 h salutaridine feeding, PR10-10 strain
# [16] = 6 h salutaridine feeding, PR10-12 strain
structure (smiles),measurement,setting,value
"CN1CC[C@]23c4c5ccc(O)c4O[C@H]2[C@@H](O)C=C[C@H]3[C@H]1C5 [Morphine, morphine]",Alkaloid accumulation in yeast,[1]; [3],0 ug/ul/OD
same,Alkaloid accumulation in yeast,[1]; [4],0 ug/ul/OD
same,Alkaloid accumulation in yeast,[1]; [5],0 ug/ul/OD
same,Alkaloid accumulation in yeast,[1]; [6],31.8118 ug/ul/OD and 38.2354 ug/ul/OD and 42.3717 ug/ul/OD and 33.3759 ug/ul/OD
same,Alkaloid accumulation in yeast,[1]; [7],0 ug/ul/OD
same,Alkaloid accumulation in yeast,[1]; [8],0 ug/ul/OD
same,Alkaloid accumulation in yeast,[1]; [9],0 ug/ul/OD
same,Alkaloid accumulation in yeast,[1]; [10],4.642 ug/ul/OD and 4.6506 ug/ul/OD and 7.363 ug/ul/OD and 9.984 ug/ul/OD
same,Alkaloid accumulation in yeast,[1]; [11],4.891 ug/ul/OD and 4.488 ug/ul/OD and 7.508 ug/ul/OD and 6.933 ug/ul/OD
same,Alkaloid accumulation in yeast,[1]; [12],8.178 ug/ul/OD and 8.8501 ug/ul/OD and 5.846 ug/ul/OD and 6.1773 ug/ul/OD
same,Alkaloid accumulation in yeast,[1]; [13],252.218 ug/ul/OD and 294.519 ug/ul/OD and 267.006 ug/ul/OD and 243.832 ug/ul/OD
same,Alkaloid accumulation in yeast,[1]; [14],5.5784 ug/ul/OD and 6.627 ug/ul/OD and 6.367 ug/ul/OD and 7.072 ug/ul/OD
same,Alkaloid accumulation in yeast,[1]; [15],8.898 ug/ul/OD and 5.659 ug/ul/OD and 6.15 ug/ul/OD and 6.406 ug/ul/OD
same,Alkaloid accumulation in yeast,[1]; [16],9.97 ug/ul/OD and 9.655 ug/ul/OD and 8.617 ug/ul/OD and 7.255 ug/ul/OD
COc1ccc2c3c1O[C@H]1[C@@H](O)CC=C4[C@@H](C2)N(C)CC[C@]431 [Neopine],Alkaloid accumulation in yeast,[1]; [3],90.1045 ug/ul/OD and 102.598 ug/ul/OD and 99.8567 ug/ul/OD and 129.514 ug/ul/OD
same,Alkaloid accumulation in yeast,[1]; [4],185.318 ug/ul/OD and 162.512 ug/ul/OD and 214.081 ug/ul/OD and 199.068 ug/ul/OD
same,Alkaloid accumulation in yeast,[1]; [5],186.914 ug/ul/OD and 216.809 ug/ul/OD and 151.679 ug/ul/OD and 178.175 ug/ul/OD
same,Alkaloid accumulation in yeast,[1]; [6],41.8682 ug/ul/OD and 68.2355 ug/ul/OD and 66.817 ug/ul/OD and 52.682 ug/ul/OD
same,Alkaloid accumulation in yeast,[1]; [7],149.026 ug/ul/OD and 177.227 ug/ul/OD and 187.803 ug/ul/OD and 167.415 ug/ul/OD
same,Alkaloid accumulation in yeast,[1]; [8],218.051 ug/ul/OD and 165.458 ug/ul/OD and 172.221 ug/ul/OD and 155.958 ug/ul/OD
same,Alkaloid accumulation in yeast,[1]; [9],219.002 ug/ul/OD and 235.566 ug/ul/OD and 193.739 ug/ul/OD and 175.392 ug/ul/OD
same,Alkaloid accumulation in yeast,[1]; [10],599.662 ug/ul/OD and 537.685 ug/ul/OD and 618.641 ug/ul/OD and 731.645 ug/ul/OD
same,Alkaloid accumulation in yeast,[1]; [11],618.023 ug/ul/OD and 659.534 ug/ul/OD and 837.009 ug/ul/OD and 779.078 ug/ul/OD
same,Alkaloid accumulation in yeast,[1]; [12],700.107 ug/ul/OD and 775.519 ug/ul/OD and 620.885 ug/ul/OD and 697.077 ug/ul/OD
same,Alkaloid accumulation in yeast,[1]; [13],260.266 ug/ul/OD and 339.365 ug/ul/OD and 269.816 ug/ul/OD and 244.703 ug/ul/OD
same,Alkaloid accumulation in yeast,[1]; [14],612.932 ug/ul/OD and 864.219 ug/ul/OD and 718.083 ug/ul/OD and 710.823 ug/ul/OD
same,Alkaloid accumulation in yeast,[1]; [15],716.828 ug/ul/OD and 684.13 ug/ul/OD and 734.317 ug/ul/OD and 683.056 ug/ul/OD
same,Alkaloid accumulation in yeast,[1]; [16],729.161 ug/ul/OD and 693.948 ug/ul/OD and 667.134 ug/ul/OD and 709.514 ug/ul/OD
"COc1ccc2c(c1OC)C(=O)O[C@@H]2[C@H]1c2c(cc3c(c2OC)OCO3)CCN1C [Noscapine, noscapine]",Hill Slope,PR10-12,-0.65 ± 0.16
same,Hill Slope,PR10-4,-0.47 ± 0.17
COC1=CC=C2[C@H]3Cc4ccc(O)c5c4[C@@]2(CCN3C)[C@H]1O5 [Oripavine],Alkaloid concentration in sucrose density-gradient fraction,"[2]; Cultivar T, fraction 1",2.778 mM
same,Alkaloid concentration in sucrose density-gradient fraction,"[2]; Cultivar T, fraction 2",3.420 mM
same,Alkaloid concentration in sucrose density-gradient fraction,"[2]; Cultivar T, fraction 3",1.728 mM
same,Alkaloid concentration in sucrose density-gradient fraction,"[2]; Cultivar T, fraction 4",0.957 mM
same,Alkaloid concentration in sucrose density-gradient fraction,"[2]; Cultivar T, fraction 5",0.493 mM
same,Alkaloid concentration in sucrose density-gradient fraction,"[2]; Cultivar T, fraction 6",0.482 mM
same,Alkaloid concentration in sucrose density-gradient fraction,"[2]; Cultivar T, fraction 7",0.333 mM
same,Alkaloid concentration in sucrose density-gradient fraction,"[2]; Cultivar T, fraction 8",0.275 mM
same,Alkaloid concentration in sucrose density-gradient fraction,"[2]; Cultivar T, fraction 9",0.240 mM
same,Alkaloid concentration in sucrose density-gradient fraction,"[2]; Cultivar T, fraction 10",0.283 mM
same,Alkaloid concentration in sucrose density-gradient fraction,"[2]; Cultivar T, fraction 11",0.421 mM
same,Alkaloid concentration in sucrose density-gradient fraction,"[2]; Cultivar T, fraction 12",0.481 mM
same,Alkaloid concentration in sucrose density-gradient fraction,"[2]; Cultivar T, fraction 13",0.408 mM
same,Alkaloid concentration in sucrose density-gradient fraction,"[2]; Cultivar T, fraction 14",0.507 mM
same,Alkaloid concentration in sucrose density-gradient fraction,"[2]; Cultivar T, fraction 15",0.488 mM
same,Alkaloid concentration in sucrose density-gradient fraction,"[2]; Cultivar T, fraction 16",0.461 mM
same,Alkaloid concentration in sucrose density-gradient fraction,"[2]; Cultivar T, fraction 17",0.654 mM
same,Alkaloid concentration in sucrose density-gradient fraction,"[2]; Cultivar T, fraction 18",0.706 mM
same,Alkaloid concentration in sucrose density-gradient fraction,"[2]; Cultivar T, fraction 19",0.627 mM
same,Alkaloid concentration in sucrose density-gradient fraction,"[2]; Cultivar T, fraction 20",0.649 mM
same,Alkaloid concentration in sucrose density-gradient fraction,"[2]; Cultivar T, fraction 21",0.775 mM
same,Alkaloid concentration in sucrose density-gradient fraction,"[2]; Cultivar T, fraction 22",0.885 mM
"COc1ccc(Cc2nccc3cc(OC)c(OC)cc23)cc1OC [Papaverine, papaverine]",Alkaloid concentration in sucrose density-gradient fraction,"[2]; Cultivar Roxanne, fraction 1",1.968 mM
same,Alkaloid concentration in sucrose density-gradient fraction,"[2]; Cultivar Roxanne, fraction 2",0.713 mM
same,Alkaloid concentration in sucrose density-gradient fraction,"[2]; Cultivar Roxanne, fraction 3",0.164 mM
same,Alkaloid concentration in sucrose density-gradient fraction,"[2]; Cultivar Roxanne, fraction 4",0.064 mM
same,Alkaloid concentration in sucrose density-gradient fraction,"[2]; Cultivar Roxanne, fraction 5",0.070 mM
same,Alkaloid concentration in sucrose density-gradient fraction,"[2]; Cultivar Roxanne, fraction 6",0.049 mM
same,Alkaloid concentration in sucrose density-gradient fraction,"[2]; Cultivar Roxanne, fraction 7",0.038 mM
same,Alkaloid concentration in sucrose density-gradient fraction,"[2]; Cultivar Roxanne, fraction 8",0.035 mM
same,Alkaloid concentration in sucrose density-gradient fraction,"[2]; Cultivar Roxanne, fraction 9",0.028 mM
same,Alkaloid concentration in sucrose density-gradient fraction,"[2]; Cultivar Roxanne, fraction 10",0.028 mM
same,Alkaloid concentration in sucrose density-gradient fraction,"[2]; Cultivar Roxanne, fraction 11",0.030 mM
same,Alkaloid concentration in sucrose density-gradient fraction,"[2]; Cultivar Roxanne, fraction 12",0.035 mM
same,Alkaloid concentration in sucrose density-gradient fraction,"[2]; Cultivar Roxanne, fraction 13",0.033 mM
same,Alkaloid concentration in sucrose density-gradient fraction,"[2]; Cultivar Roxanne, fraction 14",0.047 mM
same,Alkaloid concentration in sucrose density-gradient fraction,"[2]; Cultivar Roxanne, fraction 15",0.080 mM
same,Alkaloid concentration in sucrose density-gradient fraction,"[2]; Cultivar Roxanne, fraction 16",0.105 mM
same,Alkaloid concentration in sucrose density-gradient fraction,"[2]; Cultivar Roxanne, fraction 17",0.123 mM
same,Alkaloid concentration in sucrose density-gradient fraction,"[2]; Cultivar Roxanne, fraction 18",0.103 mM
same,Alkaloid concentration in sucrose density-gradient fraction,"[2]; Cultivar Roxanne, fraction 19",0.080 mM
same,Alkaloid concentration in sucrose density-gradient fraction,"[2]; Cultivar Roxanne, fraction 20",0.067 mM
same,Alkaloid concentration in sucrose density-gradient fraction,"[2]; Cultivar Roxanne, fraction 21",0.035 mM
same,Alkaloid concentration in sucrose density-gradient fraction,"[2]; Cultivar Roxanne, fraction 22",0.066 mM
same,Hill Slope,PR10-12,-1.70 ± 0.50
same,Hill Slope,PR10-4,-1.32 ± 0.20
same,Hill Slope,MLP2,-0.87 ± 0.12
